Experimental findings from publication PMC11285970 are described below.

Protein sequences, listed by entry. Tags and fused reporters are not part of them. Lines headed by an entry give the natural chain unless they say otherwise; changes in a name come on top.
UniProt A4I137: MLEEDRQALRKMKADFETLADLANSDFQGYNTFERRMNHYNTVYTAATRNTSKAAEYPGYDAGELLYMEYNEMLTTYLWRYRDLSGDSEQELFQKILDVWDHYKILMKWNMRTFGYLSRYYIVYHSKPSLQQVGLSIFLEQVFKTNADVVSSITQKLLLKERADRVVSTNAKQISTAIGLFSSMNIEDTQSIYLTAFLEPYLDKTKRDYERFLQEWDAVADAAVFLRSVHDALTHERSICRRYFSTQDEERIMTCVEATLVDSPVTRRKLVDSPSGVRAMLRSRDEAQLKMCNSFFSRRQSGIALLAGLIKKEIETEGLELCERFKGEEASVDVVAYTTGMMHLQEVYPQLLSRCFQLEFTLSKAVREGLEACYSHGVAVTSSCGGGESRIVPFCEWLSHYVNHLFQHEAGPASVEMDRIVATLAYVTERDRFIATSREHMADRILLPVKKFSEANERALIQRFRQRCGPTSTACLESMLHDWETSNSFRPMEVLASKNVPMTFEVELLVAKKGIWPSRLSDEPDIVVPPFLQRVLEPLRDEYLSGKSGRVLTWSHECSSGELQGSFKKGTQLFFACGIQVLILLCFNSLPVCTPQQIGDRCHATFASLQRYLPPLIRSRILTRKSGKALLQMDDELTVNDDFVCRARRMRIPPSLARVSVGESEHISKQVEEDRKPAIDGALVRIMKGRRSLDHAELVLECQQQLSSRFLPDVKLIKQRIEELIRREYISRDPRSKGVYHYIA
UniProt A4IAM5: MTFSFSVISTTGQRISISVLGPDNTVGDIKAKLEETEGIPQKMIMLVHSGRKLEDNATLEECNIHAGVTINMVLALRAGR
UniProt A4HV28: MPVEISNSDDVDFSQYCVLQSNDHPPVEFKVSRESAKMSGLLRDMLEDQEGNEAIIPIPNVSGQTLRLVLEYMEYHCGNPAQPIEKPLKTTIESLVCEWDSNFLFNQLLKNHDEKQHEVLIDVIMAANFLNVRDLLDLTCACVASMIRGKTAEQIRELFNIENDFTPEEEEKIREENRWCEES
UniProt A4I953: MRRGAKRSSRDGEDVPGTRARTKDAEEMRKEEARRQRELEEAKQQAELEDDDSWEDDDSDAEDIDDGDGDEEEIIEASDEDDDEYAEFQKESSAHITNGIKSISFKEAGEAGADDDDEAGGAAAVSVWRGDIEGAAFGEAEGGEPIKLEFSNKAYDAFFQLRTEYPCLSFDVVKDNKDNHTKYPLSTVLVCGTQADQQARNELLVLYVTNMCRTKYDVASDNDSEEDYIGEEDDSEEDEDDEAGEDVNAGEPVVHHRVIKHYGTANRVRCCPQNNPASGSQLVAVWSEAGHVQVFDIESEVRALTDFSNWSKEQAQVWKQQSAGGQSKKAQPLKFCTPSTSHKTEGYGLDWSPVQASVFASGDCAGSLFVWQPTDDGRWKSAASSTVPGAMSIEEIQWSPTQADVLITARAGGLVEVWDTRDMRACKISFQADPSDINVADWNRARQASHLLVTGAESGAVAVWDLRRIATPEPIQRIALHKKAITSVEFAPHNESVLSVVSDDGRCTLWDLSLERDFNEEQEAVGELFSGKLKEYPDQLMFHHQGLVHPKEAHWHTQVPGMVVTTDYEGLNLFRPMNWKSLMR
UniProt A4I8H1: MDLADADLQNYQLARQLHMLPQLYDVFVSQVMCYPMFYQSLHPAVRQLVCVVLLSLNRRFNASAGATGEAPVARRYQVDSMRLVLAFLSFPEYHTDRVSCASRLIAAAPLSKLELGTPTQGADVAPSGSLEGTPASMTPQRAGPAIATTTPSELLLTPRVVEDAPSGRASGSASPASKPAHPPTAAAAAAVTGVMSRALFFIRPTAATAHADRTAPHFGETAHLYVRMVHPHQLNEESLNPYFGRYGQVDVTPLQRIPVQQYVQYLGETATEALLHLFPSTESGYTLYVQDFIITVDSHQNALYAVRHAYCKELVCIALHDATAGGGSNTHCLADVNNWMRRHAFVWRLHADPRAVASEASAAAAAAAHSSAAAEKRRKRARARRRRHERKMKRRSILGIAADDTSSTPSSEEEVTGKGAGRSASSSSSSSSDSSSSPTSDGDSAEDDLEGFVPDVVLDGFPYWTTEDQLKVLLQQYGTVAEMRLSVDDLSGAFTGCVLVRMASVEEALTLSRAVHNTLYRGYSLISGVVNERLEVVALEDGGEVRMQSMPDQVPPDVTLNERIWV
UniProt A4HWG7: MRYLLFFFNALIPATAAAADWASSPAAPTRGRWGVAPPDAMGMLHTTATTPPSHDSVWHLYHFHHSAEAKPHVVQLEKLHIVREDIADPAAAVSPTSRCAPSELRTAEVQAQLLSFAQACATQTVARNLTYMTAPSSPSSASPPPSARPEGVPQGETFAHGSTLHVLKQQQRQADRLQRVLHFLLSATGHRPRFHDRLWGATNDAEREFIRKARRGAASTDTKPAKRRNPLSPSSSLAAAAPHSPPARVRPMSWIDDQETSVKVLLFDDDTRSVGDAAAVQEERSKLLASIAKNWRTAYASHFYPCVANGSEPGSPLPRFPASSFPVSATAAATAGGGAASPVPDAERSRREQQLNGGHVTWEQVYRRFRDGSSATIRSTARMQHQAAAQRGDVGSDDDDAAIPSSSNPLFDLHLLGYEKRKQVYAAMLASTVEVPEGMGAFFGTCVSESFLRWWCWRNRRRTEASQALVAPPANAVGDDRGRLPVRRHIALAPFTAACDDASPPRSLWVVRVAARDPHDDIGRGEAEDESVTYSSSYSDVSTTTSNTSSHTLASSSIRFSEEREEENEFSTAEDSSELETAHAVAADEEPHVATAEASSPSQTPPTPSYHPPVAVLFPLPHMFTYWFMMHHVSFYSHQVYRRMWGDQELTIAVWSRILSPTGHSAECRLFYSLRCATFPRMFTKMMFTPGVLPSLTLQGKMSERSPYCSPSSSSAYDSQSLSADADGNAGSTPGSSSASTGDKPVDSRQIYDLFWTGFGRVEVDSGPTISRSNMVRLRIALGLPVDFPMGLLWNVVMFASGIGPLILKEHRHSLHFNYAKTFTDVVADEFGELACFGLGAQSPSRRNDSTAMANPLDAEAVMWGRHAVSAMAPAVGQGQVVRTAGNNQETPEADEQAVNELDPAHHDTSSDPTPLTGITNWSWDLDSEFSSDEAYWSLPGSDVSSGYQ
UniProt A4I0T9: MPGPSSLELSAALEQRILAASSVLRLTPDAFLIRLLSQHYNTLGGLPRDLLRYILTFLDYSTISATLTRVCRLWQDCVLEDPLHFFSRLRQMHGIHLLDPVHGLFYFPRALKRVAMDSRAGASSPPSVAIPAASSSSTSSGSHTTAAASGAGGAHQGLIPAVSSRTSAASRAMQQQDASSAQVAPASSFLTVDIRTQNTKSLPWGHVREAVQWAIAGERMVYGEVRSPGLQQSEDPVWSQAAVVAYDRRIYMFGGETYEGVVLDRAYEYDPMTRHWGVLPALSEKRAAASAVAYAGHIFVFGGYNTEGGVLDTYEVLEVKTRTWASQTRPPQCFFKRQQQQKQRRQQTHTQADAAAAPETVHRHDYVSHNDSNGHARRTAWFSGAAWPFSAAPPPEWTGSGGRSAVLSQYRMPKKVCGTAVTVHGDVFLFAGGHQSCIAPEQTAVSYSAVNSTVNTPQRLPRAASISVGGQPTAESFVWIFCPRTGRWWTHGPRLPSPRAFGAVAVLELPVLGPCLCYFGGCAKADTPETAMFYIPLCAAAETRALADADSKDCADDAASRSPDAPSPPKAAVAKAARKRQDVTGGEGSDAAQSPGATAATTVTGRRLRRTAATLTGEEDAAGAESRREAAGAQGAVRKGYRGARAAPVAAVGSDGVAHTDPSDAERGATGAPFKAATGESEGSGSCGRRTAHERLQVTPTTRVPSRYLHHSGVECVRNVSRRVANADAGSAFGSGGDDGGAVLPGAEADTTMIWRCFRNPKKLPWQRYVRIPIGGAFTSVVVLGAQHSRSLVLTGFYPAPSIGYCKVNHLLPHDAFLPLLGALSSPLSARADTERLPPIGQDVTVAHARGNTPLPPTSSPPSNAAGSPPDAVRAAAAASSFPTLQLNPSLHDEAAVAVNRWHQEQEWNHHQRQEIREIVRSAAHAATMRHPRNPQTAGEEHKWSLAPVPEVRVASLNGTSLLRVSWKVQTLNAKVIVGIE
UniProt A4HTC4: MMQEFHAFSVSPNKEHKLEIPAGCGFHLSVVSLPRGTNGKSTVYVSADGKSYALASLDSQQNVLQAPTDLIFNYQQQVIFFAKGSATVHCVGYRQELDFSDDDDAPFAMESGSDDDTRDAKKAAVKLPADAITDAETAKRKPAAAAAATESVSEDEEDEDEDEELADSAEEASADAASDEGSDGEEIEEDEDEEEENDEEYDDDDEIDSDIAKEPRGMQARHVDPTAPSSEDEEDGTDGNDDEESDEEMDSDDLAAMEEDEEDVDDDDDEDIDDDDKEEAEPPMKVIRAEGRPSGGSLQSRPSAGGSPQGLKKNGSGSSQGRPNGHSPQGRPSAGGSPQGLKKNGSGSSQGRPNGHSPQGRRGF
UniProt A4ICF5: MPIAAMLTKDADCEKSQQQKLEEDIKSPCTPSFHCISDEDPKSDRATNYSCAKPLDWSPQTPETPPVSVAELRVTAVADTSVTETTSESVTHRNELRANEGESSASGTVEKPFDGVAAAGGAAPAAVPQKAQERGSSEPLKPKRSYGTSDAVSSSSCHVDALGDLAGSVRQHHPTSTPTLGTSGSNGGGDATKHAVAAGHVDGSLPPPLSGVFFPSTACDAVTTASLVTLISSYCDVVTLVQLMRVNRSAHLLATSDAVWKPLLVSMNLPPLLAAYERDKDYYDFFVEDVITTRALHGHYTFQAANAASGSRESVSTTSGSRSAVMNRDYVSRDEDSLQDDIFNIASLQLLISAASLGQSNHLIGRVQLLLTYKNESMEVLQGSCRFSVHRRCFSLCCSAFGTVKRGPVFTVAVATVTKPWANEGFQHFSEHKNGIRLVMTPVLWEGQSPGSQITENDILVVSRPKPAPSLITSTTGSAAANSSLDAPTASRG
UniProt A4I7N7: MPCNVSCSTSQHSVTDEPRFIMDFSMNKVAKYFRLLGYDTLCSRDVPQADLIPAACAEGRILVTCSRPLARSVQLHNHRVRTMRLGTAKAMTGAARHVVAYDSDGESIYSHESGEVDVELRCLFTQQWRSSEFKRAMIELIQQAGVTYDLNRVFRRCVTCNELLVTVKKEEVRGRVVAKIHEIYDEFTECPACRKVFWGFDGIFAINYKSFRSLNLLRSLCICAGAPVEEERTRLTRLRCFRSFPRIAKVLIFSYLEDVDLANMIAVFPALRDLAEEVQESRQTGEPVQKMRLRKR
UniProt A4I9T3: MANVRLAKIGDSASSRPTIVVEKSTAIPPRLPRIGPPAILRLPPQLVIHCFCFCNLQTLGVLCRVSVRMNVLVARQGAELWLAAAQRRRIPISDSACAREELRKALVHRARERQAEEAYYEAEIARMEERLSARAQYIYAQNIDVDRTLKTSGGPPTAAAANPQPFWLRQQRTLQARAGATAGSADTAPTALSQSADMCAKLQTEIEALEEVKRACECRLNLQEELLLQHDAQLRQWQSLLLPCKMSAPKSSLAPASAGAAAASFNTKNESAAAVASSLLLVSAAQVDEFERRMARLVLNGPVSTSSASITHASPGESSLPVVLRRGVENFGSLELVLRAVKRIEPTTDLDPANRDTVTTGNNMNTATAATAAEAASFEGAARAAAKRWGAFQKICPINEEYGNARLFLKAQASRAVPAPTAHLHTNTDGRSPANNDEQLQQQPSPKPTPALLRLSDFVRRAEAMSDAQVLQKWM
UniProt E9AHR9: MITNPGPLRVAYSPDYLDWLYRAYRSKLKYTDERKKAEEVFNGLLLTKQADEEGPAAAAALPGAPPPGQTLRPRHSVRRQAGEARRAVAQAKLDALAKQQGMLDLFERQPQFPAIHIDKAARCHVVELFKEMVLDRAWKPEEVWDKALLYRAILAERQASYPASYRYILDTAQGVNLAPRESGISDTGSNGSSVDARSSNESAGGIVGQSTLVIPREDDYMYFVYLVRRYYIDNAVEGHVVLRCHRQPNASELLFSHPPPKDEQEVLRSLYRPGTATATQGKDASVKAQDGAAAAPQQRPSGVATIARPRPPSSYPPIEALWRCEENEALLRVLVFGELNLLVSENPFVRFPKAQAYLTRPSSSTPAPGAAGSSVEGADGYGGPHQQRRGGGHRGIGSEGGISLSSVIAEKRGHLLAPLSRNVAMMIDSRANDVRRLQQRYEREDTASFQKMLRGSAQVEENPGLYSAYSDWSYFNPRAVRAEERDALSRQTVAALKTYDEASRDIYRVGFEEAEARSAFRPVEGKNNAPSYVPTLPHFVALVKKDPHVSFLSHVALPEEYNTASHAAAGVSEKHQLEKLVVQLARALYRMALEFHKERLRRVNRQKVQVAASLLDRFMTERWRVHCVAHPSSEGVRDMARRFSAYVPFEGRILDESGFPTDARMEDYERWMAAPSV

No constants are given. Whether binding was seen depends on the method and setting. Binding seen in cells or lysates may run through a third protein. These calls come from enrichment with a bait or labelling near it, and not all partners need be listed.

The first test has as its target 3xmyc-mCherry-LinfCul1 (tagged at the gene's own locus in L. infantum) (L. infantum) (UniProt A4I137). Briefly: affinity purification with mass spectrometry; lysates of L. infantum lines with 3x myc-mCherry::SKP1 or 3x myc-mCherry::CUL1 (parental Cas9 T7 as negative control); NP-40 lysis buffer with 225 mM KCl; 20 mg protein on anti-myc beads 3 h at 4 °C; on-bead trypsin digestion; nLC-MS/MS; three ….
For “ubiquitin-like protein LINF_340026400, endogenous (from UniProt A4IAM5)”, the binding result is “binds”.

The next test deals with 3xmyc-mCherry-LinfSkp1 (tagged at the gene's own locus in L. infantum) (L. infantum) (UniProt A4HV28). The test is described as above.
On to “LINF_330027700 (RNA binder), endogenous (from UniProt A4I953)”, for which the binding result is reported as “binds”. Consider “LINF_320042200 (RNA binder), endogenous (from UniProt A4I8H1)”, for which the binding entry is “binds”. Still for that read-out and setting: next, “ubiquitin-like protein LINF_340026400, endogenous (from UniProt A4IAM5)”: “binds”; “LinfFlp2, endogenous (LINF_150014400) (from UniProt A4HWG7)”: “binds”. Still for that read-out and setting: next, “LinfFlp1, endogenous (LINF_240015400) (from UniProt A4I0T9)”: “binds”; “LINF_070016300 (RNA binder), endogenous (from UniProt A4HTC4)”: “binds”. Turning to “LinfFlp6, endogenous (LINF_360032300) (from UniProt A4ICF5)”, the binding result is on record as “binds”.

With “LINF_320012500 (RNA binder), endogenous (from UniProt A4I7N7)”, the binding entry is recorded as “binds”. For “LinfFlp5, endogenous (LINF_340019100) (from UniProt A4I9T3)”, the binding entry is listed as “binds”. Take “LINF_330034300 (RNA binder), endogenous (from UniProt E9AHR9)”: the binding entry is on record as “binds”.
